From the supplement of paper PMC10849652
This is one part of the list.

By UniProt entry, the sequences of proteins in these tests, tags left out. Where a name states a change or a piece, a line headed by the entry shows the natural chain unless it says otherwise.
UniProt O75351, whole entry, looked up: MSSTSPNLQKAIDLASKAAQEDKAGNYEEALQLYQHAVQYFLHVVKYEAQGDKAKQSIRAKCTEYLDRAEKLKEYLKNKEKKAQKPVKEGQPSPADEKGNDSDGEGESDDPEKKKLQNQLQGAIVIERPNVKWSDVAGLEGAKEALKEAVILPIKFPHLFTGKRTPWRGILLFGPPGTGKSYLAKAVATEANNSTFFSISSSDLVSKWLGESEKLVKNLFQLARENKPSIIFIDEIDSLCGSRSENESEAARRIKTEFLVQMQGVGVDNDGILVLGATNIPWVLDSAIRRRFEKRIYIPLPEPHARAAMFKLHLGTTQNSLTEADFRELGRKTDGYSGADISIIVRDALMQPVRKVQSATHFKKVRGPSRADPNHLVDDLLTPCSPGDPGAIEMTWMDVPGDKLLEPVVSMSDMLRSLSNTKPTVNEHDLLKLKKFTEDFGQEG
UniProt P17861: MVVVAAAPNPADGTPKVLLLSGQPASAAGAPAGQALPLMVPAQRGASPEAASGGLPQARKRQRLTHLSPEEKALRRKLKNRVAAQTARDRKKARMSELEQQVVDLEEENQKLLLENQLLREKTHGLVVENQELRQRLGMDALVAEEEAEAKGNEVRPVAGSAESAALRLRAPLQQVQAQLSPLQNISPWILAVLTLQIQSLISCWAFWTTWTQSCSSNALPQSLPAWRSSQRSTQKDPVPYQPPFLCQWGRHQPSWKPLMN
UniProt Q96RL7: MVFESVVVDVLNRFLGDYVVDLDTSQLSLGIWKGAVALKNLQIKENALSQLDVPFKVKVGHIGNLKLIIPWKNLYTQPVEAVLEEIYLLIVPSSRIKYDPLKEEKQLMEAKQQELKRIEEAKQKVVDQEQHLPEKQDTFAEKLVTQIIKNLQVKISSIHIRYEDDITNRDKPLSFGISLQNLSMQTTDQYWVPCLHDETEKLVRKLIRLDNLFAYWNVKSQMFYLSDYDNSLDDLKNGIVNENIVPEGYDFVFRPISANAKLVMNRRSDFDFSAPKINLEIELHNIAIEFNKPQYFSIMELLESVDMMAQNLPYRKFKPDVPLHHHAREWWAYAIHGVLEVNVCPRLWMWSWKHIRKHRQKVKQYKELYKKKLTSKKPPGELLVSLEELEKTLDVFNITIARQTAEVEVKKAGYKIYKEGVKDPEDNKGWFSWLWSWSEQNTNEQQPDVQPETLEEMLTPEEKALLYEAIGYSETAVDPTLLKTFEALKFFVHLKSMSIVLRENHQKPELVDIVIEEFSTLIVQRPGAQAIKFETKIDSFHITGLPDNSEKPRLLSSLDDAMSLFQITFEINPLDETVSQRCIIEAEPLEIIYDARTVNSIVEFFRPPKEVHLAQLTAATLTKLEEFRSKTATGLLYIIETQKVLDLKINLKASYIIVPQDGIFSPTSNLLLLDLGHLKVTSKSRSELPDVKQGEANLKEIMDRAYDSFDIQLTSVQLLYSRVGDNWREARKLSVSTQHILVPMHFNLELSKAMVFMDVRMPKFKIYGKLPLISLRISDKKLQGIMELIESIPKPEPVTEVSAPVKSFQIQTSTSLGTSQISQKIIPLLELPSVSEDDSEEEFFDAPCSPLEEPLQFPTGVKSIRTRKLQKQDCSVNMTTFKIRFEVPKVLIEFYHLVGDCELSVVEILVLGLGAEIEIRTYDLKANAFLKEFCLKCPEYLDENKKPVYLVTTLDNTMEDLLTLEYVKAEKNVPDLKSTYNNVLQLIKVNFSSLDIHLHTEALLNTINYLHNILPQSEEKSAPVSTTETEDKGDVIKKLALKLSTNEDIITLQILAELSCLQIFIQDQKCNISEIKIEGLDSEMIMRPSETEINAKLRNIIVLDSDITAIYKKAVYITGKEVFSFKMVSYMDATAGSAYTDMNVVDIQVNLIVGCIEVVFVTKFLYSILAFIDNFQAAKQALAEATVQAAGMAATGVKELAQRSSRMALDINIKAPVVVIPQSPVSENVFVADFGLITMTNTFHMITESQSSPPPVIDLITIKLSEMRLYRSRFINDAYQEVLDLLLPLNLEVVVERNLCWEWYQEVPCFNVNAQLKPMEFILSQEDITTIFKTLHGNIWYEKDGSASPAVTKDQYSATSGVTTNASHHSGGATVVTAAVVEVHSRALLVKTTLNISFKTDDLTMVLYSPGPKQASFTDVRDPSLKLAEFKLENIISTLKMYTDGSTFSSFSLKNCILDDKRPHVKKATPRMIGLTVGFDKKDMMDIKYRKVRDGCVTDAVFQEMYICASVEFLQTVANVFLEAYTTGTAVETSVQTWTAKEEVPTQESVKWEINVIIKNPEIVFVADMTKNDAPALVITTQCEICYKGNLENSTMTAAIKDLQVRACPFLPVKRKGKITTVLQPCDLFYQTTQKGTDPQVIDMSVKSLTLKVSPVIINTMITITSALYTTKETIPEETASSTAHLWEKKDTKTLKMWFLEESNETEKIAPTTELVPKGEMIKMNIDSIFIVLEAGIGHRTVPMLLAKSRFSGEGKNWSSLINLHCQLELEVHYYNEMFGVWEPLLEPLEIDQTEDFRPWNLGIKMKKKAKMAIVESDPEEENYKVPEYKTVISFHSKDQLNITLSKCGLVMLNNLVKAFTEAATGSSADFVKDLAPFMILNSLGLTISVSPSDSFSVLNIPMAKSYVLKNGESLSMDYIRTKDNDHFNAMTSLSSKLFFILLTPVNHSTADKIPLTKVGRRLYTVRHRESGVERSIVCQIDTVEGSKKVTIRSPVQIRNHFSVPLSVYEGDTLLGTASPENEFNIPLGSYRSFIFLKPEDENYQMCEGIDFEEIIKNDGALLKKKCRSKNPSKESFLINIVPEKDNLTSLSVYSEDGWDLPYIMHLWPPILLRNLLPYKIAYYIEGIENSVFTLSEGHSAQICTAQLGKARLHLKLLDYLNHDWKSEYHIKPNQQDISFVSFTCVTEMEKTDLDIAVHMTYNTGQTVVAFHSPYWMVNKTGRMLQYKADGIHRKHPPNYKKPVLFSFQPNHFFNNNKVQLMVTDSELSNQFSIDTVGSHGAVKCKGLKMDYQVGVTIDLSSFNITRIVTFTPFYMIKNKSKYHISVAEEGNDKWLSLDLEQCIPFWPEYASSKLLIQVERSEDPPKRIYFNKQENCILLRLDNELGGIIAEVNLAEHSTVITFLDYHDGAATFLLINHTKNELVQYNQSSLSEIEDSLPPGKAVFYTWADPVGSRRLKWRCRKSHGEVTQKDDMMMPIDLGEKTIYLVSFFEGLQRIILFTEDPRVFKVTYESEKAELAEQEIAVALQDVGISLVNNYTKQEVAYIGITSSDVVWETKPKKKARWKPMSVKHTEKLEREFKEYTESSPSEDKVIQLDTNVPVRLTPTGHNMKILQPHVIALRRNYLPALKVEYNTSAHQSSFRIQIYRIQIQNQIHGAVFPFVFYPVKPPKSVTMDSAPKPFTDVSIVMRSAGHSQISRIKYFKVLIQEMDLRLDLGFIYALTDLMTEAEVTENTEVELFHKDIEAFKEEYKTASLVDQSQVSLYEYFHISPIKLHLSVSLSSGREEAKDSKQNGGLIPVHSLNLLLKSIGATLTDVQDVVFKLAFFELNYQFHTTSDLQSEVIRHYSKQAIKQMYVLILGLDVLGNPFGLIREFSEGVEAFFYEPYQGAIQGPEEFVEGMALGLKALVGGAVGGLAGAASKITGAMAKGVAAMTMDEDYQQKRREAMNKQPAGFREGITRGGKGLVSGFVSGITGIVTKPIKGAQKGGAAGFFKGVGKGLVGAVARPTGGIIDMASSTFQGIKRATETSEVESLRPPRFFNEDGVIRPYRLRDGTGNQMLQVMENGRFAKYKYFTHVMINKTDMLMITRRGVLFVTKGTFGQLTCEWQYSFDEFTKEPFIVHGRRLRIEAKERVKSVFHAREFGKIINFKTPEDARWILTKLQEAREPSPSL
UniProt Q502W6: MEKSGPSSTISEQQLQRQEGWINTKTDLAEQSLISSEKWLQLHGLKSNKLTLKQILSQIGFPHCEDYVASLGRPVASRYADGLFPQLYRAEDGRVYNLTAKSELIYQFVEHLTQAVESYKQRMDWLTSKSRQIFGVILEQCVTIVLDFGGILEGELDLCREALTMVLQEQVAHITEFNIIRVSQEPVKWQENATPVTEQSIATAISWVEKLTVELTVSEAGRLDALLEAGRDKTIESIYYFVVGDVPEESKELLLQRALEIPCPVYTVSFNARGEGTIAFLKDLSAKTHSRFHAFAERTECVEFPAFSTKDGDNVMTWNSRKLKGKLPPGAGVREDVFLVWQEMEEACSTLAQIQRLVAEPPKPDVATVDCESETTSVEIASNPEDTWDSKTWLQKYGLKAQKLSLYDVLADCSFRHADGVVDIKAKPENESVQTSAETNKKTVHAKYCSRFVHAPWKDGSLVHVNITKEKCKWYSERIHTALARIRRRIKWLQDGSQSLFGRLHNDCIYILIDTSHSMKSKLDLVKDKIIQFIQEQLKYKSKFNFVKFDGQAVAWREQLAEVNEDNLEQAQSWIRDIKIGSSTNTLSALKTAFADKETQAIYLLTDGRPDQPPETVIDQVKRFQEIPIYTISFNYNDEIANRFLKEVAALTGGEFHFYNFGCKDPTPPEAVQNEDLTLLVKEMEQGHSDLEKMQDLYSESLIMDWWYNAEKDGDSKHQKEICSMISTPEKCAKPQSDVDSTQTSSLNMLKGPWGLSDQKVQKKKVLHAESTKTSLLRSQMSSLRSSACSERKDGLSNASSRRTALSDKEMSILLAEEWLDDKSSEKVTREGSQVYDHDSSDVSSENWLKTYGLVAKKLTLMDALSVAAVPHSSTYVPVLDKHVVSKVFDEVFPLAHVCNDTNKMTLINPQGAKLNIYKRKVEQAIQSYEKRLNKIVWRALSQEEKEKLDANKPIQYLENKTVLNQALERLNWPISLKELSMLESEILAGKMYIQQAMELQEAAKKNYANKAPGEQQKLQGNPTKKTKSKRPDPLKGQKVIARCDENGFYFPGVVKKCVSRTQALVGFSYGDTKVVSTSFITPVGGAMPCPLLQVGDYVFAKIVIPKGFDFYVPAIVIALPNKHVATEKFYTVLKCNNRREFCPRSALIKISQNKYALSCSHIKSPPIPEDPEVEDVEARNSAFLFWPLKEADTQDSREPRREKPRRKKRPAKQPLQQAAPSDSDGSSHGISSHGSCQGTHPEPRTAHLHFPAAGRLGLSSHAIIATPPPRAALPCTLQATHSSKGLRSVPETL
UniProt Q9UEU0: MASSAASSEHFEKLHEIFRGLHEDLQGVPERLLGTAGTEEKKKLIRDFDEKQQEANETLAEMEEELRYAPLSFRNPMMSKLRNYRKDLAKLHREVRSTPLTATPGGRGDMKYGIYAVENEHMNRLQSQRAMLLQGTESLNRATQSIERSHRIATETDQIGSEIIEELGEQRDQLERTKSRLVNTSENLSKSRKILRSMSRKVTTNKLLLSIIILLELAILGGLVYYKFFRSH
UniProt Q8TBY9: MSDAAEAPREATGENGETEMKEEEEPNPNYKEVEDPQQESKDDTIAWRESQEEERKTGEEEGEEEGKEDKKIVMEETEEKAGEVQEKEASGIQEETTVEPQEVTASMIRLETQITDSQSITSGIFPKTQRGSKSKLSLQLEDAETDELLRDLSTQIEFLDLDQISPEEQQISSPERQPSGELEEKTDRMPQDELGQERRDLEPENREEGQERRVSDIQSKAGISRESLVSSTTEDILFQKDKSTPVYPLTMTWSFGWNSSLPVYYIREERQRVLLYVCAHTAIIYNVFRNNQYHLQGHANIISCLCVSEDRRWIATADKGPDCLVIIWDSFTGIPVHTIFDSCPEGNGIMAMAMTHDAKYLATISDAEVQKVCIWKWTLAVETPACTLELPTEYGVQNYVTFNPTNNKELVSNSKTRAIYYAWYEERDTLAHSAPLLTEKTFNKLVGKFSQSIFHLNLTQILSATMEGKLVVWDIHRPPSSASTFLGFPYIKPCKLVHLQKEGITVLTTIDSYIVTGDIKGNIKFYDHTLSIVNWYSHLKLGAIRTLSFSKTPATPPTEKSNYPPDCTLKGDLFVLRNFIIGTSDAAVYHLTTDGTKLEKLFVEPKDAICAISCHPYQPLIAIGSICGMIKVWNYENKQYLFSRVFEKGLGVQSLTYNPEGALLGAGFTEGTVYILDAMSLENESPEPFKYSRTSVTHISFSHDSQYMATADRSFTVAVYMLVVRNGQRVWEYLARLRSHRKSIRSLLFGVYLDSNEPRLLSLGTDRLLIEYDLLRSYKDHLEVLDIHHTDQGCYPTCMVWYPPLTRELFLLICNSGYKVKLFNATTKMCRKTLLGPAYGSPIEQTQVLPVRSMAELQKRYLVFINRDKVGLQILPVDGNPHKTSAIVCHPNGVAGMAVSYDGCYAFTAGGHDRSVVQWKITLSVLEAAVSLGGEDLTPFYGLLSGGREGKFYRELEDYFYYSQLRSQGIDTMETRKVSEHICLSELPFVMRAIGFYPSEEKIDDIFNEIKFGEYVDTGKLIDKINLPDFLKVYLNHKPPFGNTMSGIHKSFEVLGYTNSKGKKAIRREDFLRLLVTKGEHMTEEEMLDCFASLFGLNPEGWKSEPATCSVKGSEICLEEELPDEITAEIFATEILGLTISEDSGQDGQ

Tests used:
Assay in all cases: log2 fold change, soluble protein after heating vs DMSO (PISA); higher = thermal stabilisation; K562 lysate, 10 uM; active = over 0.2 and 3.5 SD of the protein, either way, in both replicates (recomputed)
nilotinib = compound: Cc1cn(-c2cc(NC(=O)c3ccc(C)c(Nc4nccc(-c5cccnc5)n4)c3)cc(C(F)(F)F)c2)cn1 [nilotinib]
Procedure, shortened: (§1)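 Values give the log-two fold change in thermal stability against solvent controls, from duplicates. Crude K562 extract at 1 mg/mL protein, made by dounce homogenisation in PBS pH 7.4 with 1 mM MgCl2, was treated with 10 μM compound for 30 min. After 3 min heating across 48°C-58°C, aliquots were pooled, adjusted to 0.5% NP-40 at 4°C and centrifuged at 21,000xg for 90 min. The supernatant was measured by TMTpro 16plex LC-MS/MS with channel sums equalised.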

[1] = compound: Cc1nc(Nc2n[nH]c3c2CN(C(=O)N[C@H](CN(C)C)c2ccccc2)C3(C)C)c2sccc2n1
Procedure, shortened: as §1

[2] = compound: Cc1ncc(-c2ccnc(Nc3ccc(S(C)(=O)=O)cc3)n2)n1C(C)C
Procedure, shortened: as §1

quisinostat = compound: Cn1cc(CNCC2CCN(c3ncc(C(=O)NO)cn3)CC2)c2ccccc21 [quisinostat]
Procedure, shortened: as §1

tipifarnib = compound: Cn1cncc1[C@@](N)(c1ccc(Cl)cc1)c1ccc2c(c1)c(-c1cccc(Cl)c1)cc(=O)n2C [tipifarnib]
Procedure, shortened: as §1

[3] = compound: NC(=O)Nc1cc(-c2cccc(F)c2)sc1C(=O)N[C@H]1CCCNC1
Procedure, shortened: as §1

[4] = compound: NC(=O)c1cnc(N[C@@H]2CCCC[C@@H]2N)nc1Nc1cccc(-n2nccn2)c1
Procedure, shortened: as §1

[5] = compound: O=C1NC(=O)C(c2cnc3ccccn23)=C1c1cn2c3c(cc(F)cc13)CN(C(=O)N1CCCCC1)CC2
Procedure, shortened: as §1

dasatinib = compound: Cc1nc(Nc2ncc(C(=O)Nc3c(C)cccc3Cl)s2)cc(N2CCN(CCO)CC2)n1 [dasatinib]
Procedure, shortened: as §1

[6] = compound: Cn1cc(-c2ccc3c(c2)CCN3C(=O)Cc2cccc(C(F)(F)F)c2)c2c(N)ncnc21
Procedure, shortened: as §1

[7] = compound: NC1(c2ccc(-c3nc4ccn5c(=O)[nH]nc5c4cc3-c3ccccc3)cc2)CCC1
Procedure, shortened: as §1

[8] = compound: NCC(=O)Nc1ccc(-n2nc(C(F)(F)F)cc2-c2ccc3c(ccc4ccccc43)c2)cc1
Procedure, shortened: as §1

vorinostat = compound: O=C(CCCCCCC(=O)Nc1ccccc1)NO [vorinostat]
Procedure, shortened: as §1

silmitasertib = compound: O=C(O)c1ccc2c(c1)nc(Nc1cccc(Cl)c1)c1ccncc12 [silmitasertib]
Procedure, shortened: as §1

entospletinib = compound: c1cn2cc(-c3ccc4cn[nH]c4c3)nc(Nc3ccc(N4CCOCC4)cc3)c2n1 [entospletinib]
Procedure, shortened: as §1

Measured: log2 fold change

WDR19 (UniProt Q8NEZ3)
inactive: nilotinib -0.306 | [1] -0.027 | [2] 0.137 | quisinostat -0.454 | tipifarnib -0.049 | [3] 0.147 | [4] 0.102 | [5] 0.321

VSIR (UniProt Q9H7M9)
inactive: dasatinib -0.022 | [6] -0.08 | quisinostat 0.145 | [3] -0.059 | [4] -0.04 | [7] 0.054 | [8] -0.03 | vorinostat 0.115 | silmitasertib -0.038 | [5] -0.194 | entospletinib 0.028

VPS4B (UniProt O75351)
inactive: nilotinib 0.049 | [1] 0.004 | dasatinib -0.053 | [2] -0.031 | [6] 0.014 | quisinostat 0.072 | tipifarnib -0.022 | [3] 0.024 | [4] 0.007 | [7] -0.036 | [8] 0.03 | vorinostat -0.182 | silmitasertib 0.034 | [5] -0.023 | entospletinib 0.034

WDFY2 (UniProt Q96P53)
inactive: dasatinib -0.063 | [6] 0.018 | [7] -0.139 | vorinostat -0.167 | silmitasertib 0.001

VPS29 (UniProt Q9UBQ0)
inactive: dasatinib -0.118 | [6] -0.053 | quisinostat 0.075 | [3] 0.073 | [4] 0.163 | [7] -0.077 | [8] 0.074 | vorinostat -0.044 | silmitasertib 0.074 | [5] 0.063

WAS (UniProt P42768)
active: nilotinib 0.636
inactive: [1] -0.102 | dasatinib 0.095 | [2] 0.318 | [6] 0.129 | tipifarnib -0.064 | [7] 0.025 | vorinostat -0.07 | silmitasertib 0.025 | entospletinib -0.055

XBP1 isoform 2 (UniProt P17861)
inactive: [7] -0.061 | vorinostat -0.104 | silmitasertib 0.011

WDR55 (UniProt Q9H6Y2)
inactive: nilotinib -0.02 | [1] 0.013 | dasatinib -0.019 | [2] -0.005 | [6] -0.014 | quisinostat 0.044 | tipifarnib 0.041 | [3] -0.025 | [4] 0.034 | [7] -0.039 | [8] 0.011 | vorinostat -0.078 | silmitasertib 0.02 | [5] -0.009 | entospletinib 0.014

WSB1 (UniProt Q9Y6I7)
inactive: dasatinib -0.194 | [6] 0.012

XK (UniProt P51811)
inactive: nilotinib 0.057 | [1] 0.055 | dasatinib 0.018 | [2] -0.149 | [6] -0.141 | tipifarnib 0.075 | [4] -0.143 | [7] -0.021 | vorinostat 0.052 | silmitasertib 0.008 | entospletinib -0.053

VPS13A (UniProt Q96RL7)
inactive: nilotinib 0.091 | [1] -0.015 | dasatinib -0.016 | [2] -0.045 | [6] -0.074 | quisinostat 0.01 | tipifarnib -0.086 | [3] 0.008 | [4] -0.036 | [7] -0.078 | [8] -0.001 | vorinostat 0.203 | silmitasertib -0.019 | [5] -0.031 | entospletinib -0.085

VLDLR (UniProt P98155)
inactive: quisinostat -0.172 | [3] -0.314 | [7] -0.014 | vorinostat 0.325 | silmitasertib 0.133 | [5] -0.115

WDR1 (UniProt O75083)
inactive: nilotinib -0.003 | [1] -0.007 | dasatinib -0.002 | [2] -0.007 | [6] 0.017 | quisinostat 0.055 | tipifarnib 0.025 | [3] -0.015 | [4] -0.01 | [7] 0.011 | [8] -0.014 | vorinostat 0.046 | silmitasertib -0.001 | [5] 0 | entospletinib 0.015

2 successive records already listed, for reference:
WSB1 (UniProt Q9Y6I7)
inactive: dasatinib -0.194 | [6] 0.012

XK (UniProt P51811)
inactive: nilotinib 0.057 | [1] 0.055 | dasatinib 0.018 | [2] -0.149 | [6] -0.141 | tipifarnib 0.075 | [4] -0.143 | [7] -0.021 | vorinostat 0.052 | silmitasertib 0.008 | entospletinib -0.053

Next records follow.

WDR54 isoform 4 (UniProt Q9H977)
inactive: dasatinib 0.14 | [6] -0.083 | quisinostat -0.09 | [3] 0.056 | [8] -0.116 | [5] 0.025 | entospletinib 0

WARS1 (UniProt G3V456)
inactive: [4] -0.334

XP32 (UniProt Q5T750)
inactive: quisinostat 0.763 | [3] 0.55 | [5] 0.347

WDR13, A0A087X091
inactive: [8] 0.028

VWA3B isoform 6 (UniProt Q502W6)
inactive: nilotinib -0.025 | [1] -0.031 | dasatinib -0.15 | [2] 0.009 | [6] 0.03 | quisinostat 0.117 | tipifarnib 0.026 | [3] -0.002 | [4] -0.064 | [7] -0.045 | vorinostat -0.096 | silmitasertib 0.074 | [5] -0.091 | entospletinib 0.006

WAC isoform 5 (UniProt Q9BTA9)
inactive: dasatinib -0.336 | [6] 0.254 | [7] -0.129 | vorinostat -0.002 | silmitasertib 0.351

WARS1 (UniProt G3V5U1)
inactive: nilotinib -0.134 | [1] 0.727 | [2] 0.027 | tipifarnib 0.324 | [4] 0.037 | entospletinib -0.368

WDR46, A0A0G2JJL1
inactive: nilotinib 0.068 | [1] -0.127 | dasatinib 0.037 | [2] 0.003 | [6] 0.048 | tipifarnib 0.112 | [4] 0.039 | [8] 0.154

WIPI1 (UniProt Q5MNZ9)
active: [2] 0.314
inactive: nilotinib 0.011 | [1] -0.198 | dasatinib 0.06 | [6] -0.028 | quisinostat 0.013 | tipifarnib 0.003 | [3] -0.011 | [4] 0.009 | [7] 0.011 | vorinostat 0.088 | silmitasertib -0.051 | [5] 0.026 | entospletinib -0.001

VPS11 (UniProt Q9H270)
inactive: nilotinib -0.007 | [1] -0.008 | dasatinib -0.003 | [2] -0.018 | [6] -0.002 | quisinostat -0.055 | tipifarnib -0.002 | [3] 0.06 | [4] -0.003 | [7] 0.003 | [8] 0.023 | silmitasertib -0.009 | [5] 0.011 | entospletinib -0.006
active: vorinostat -0.509

XAGE1A (UniProt Q9HD64)
inactive: nilotinib -0.017 | [1] -0.058 | [2] 0.159 | tipifarnib -0.139 | [8] -0.065 | entospletinib 0.045

XIRP2 isoform 8 (UniProt A4UGR9)
inactive: nilotinib 0.245 | [1] -0.06 | [2] -0.121 | tipifarnib 0.028 | [4] 0.065

WARS1 (UniProt G3V277)
inactive: [8] -0.047 | entospletinib -0.067

XAB2 (UniProt Q9HCS7)
active: vorinostat -0.259
inactive: nilotinib 0.032 | [1] -0.002 | dasatinib -0.051 | [2] 0.048 | [6] 0.017 | quisinostat 0.106 | tipifarnib -0.046 | [3] 0.046 | [4] -0.025 | [7] -0.01 | [8] -0.012 | silmitasertib 0.005 | [5] -0.023 | entospletinib -0.006

WASHC2A (UniProt Q641Q2)
inactive: nilotinib 0.021 | [1] 0.003 | dasatinib 0.003 | [2] 0.03 | [6] 0.003 | quisinostat 0.005 | tipifarnib -0.003 | [3] 0.001 | [4] -0.004 | [7] -0.013 | [8] 0.009 | vorinostat 0.079 | silmitasertib -0.014 | [5] -0.004 | entospletinib -0.006

WDR75 (UniProt Q8IWA0)
inactive: nilotinib 0.034 | [1] 0.012 | dasatinib 0.014 | [2] -0.029 | [6] 0.046 | quisinostat -0.151 | tipifarnib -0.136 | [3] 0.05 | [4] 0.022 | [7] -0.015 | [8] -0.014 | vorinostat -0.086 | silmitasertib 0.06 | [5] 0.059 | entospletinib -0.091

WASHC4 (UniProt Q2M389)
inactive: nilotinib 0.013 | [1] 0 | dasatinib -0.001 | [2] 0.021 | [6] 0.041 | quisinostat -0.038 | tipifarnib -0.005 | [3] 0.003 | [4] 0.006 | [7] -0.049 | [8] 0.001 | vorinostat 0.068 | silmitasertib 0.025 | [5] -0.002 | entospletinib 0.005

WDR76 (UniProt Q9H967)
inactive: nilotinib 0.003 | [1] 0.071 | dasatinib 0.099 | [2] 0.003 | [6] -0.145 | quisinostat -0.098 | tipifarnib 0.008 | [3] 0.013 | [5] 0.054 | entospletinib -0.033

VTI1B (UniProt Q9UEU0)
inactive: nilotinib -0.038 | [1] 0.084 | dasatinib 0.026 | [2] -0.043 | [6] 0.029 | quisinostat 0.052 | tipifarnib -0.041 | [3] -0.049 | [4] -0.021 | [7] -0.002 | vorinostat 0.066 | silmitasertib -0.01 | [5] -0.037 | entospletinib -0.009

WWOX (UniProt Q9NZC7)
inactive: dasatinib 0.045 | [6] 0.123 | quisinostat -0.123 | [3] 0.212 | [8] 0.18 | [5] 0.089

VTA1 (UniProt Q9NP79)
inactive: nilotinib -0.006 | [1] -0.008 | dasatinib 0.041 | [2] -0.018 | [6] 0.031 | quisinostat 0.043 | tipifarnib 0.022 | [3] 0.014 | [4] -0.007 | [7] -0.002 | [8] -0.04 | vorinostat 0.083 | silmitasertib -0.025 | [5] -0.047 | entospletinib -0.031

WDR66 (UniProt Q8TBY9)
inactive: [8] 0.069

WDR34 (UniProt Q96EX3)
inactive: nilotinib 0.03 | [1] -0.082 | dasatinib -0.08 | [2] -0.049 | [6] 0.11 | quisinostat -0.288 | tipifarnib 0.087 | [3] 0.017 | [7] 0.013 | [8] 0.056 | vorinostat -0.044 | silmitasertib -0.024 | [5] 0.045 | entospletinib 0.122
